Assay results from PubChem BioAssay AID1035470 (Broad Institute, 2014).
Fewer than 10 of roughly 1,800 compounds were called active. Roughly 16% stayed inconclusive and do not appear here.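 Rule for the calls: active = compound lowering the normal-ribosome reporter at least twice as much as the humanized-ribosome reporter, growth loss under a set limit; inconclusive = no clear call, values can overlap the other calls; inactive = the rest.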 The entries are a selection whose mix differs from that of the whole data set. Entries with a potency or affinity are not part of this list.

assay: E. coli strain growth, wild-type against G2058 humanized RFP mutant – G2058 mutant RFP vs wild-type GFP, cherry-pick, two tests, dose response (AID 1035470); details: E. coli WT-GFP vs G2058-humanized RFP, fluorescence, 24 h; at 50 µM (top of the series)

Activity change, negative = inhibition, inactive:
Cc1ccc([N+](=O)[O-])c(OCCn2cnc3ccccc32)c1 -5.38
COc1ccc(NC(=O)c2ccc(COc3ccccc3Br)o2)c(OC)c1 -16.7
O=C(COC(=O)C1CC1)Nc1nc(-c2ccc(F)c(F)c2)cs1 -19.8
CSc1nnnn1-c1ccc(Cl)cc1 -12.6
CC(C)(C)CC(=O)NCCc1csc(-c2ccccc2)n1 1.87
COc1ccccc1N(C)S(=O)(=O)c1ccc(Cl)c(C(=O)NC2=NCCS2)c1 -15.9
COc1ccc(OC)c(NC(=O)COC(=O)CCNc2ccccc2OC)c1 -10.2
CC1Cc2cc(S(=O)(=O)N3CCN(c4cccc(Cl)c4)CC3)ccc2N1C(=O)C1CC1 (configuration not stated) -12.6
CCN(C(=O)COC(=O)CCc1ccccc1)c1ccccc1 2.79
CCOC(=O)c1cnc2ccc(OCC)cc2c1NCCCN1CCOCC1 -9.57
COc1cc(CC(=O)Nc2nc(C)cs2)cc(OC)c1OC -4.69
COc1cccc(NC(=O)c2ccc(-c3ccc([N+](=O)[O-])cc3)o2)c1 -18.6
C[C@@H]1CN([C@@H](C)CO)C(=O)c2cccc(NC(=O)c3nc4ccccc4s3)c2O[C@@H]1CN(C)CC1CC1 -5.32
O=C(NCCCN1CCOCC1)c1sc2cc([N+](=O)[O-])ccc2c1Cl 8.82
O=S(=O)(Nc1ccccc1N1CCCCC1)c1cccs1 -4.94
COc1ccc(CN(C)C(=O)c2cc(-c3ccc(OC)c(OC)c3)nc3ccccc23)c(OC)c1 -7.07
COc1cc[n+]([O-])cc1[N+](=O)[O-] 6.82
Cc1cccc(C)c1Nc1ncnc2ccccc12 -6.03
O=C(Nc1ccc(Cl)c(Cl)c1)N[C@@H]1CC[C@@H](CCn2cc(C3CCCCC3)nn2)O[C@H]1CO -14.9
CN1CCN(C(=O)c2cc3nc(-c4ccco4)cc(C(F)(F)F)n3n2)CC1 1.97
C[C@@H]1CN([C@@H](C)CO)C(=O)c2cc(NC(=O)Nc3cccc4ccccc34)ccc2O[C@@H](C)CCCCO[C@H]1CN(C)C 5.58
Cc1cc(C)c(NC(=O)C(C)c2cccc(C(=O)c3ccccc3)c2)c(C)c1 (configuration not stated) -24.5
COc1ccc(C2CC(c3ccc(Br)cc3)=NN2C(=O)CN2CCCC2)cc1 (configuration not stated) -6.02
COc1ccc(-c2nc(C3CCCCC3)no2)cc1OC -15.4
O=C(CCC(=O)N1CCN(c2ccc(F)cc2)CC1)c1ccc(F)cc1 -14.1
O=C(Nc1ccn(Cc2ccc(Cl)cc2)n1)c1ccccc1 -8.56
COc1ccc(NC(=O)CN(c2ccccc2OC)S(=O)(=O)c2cccs2)cc1Cl -19.3
CCC(C(=O)NC1CCCC1)n1c(-c2ccnc3ccccc23)nc2ccccc21 (configuration not stated) -22.6
COc1ccc(C2CC(c3cccs3)=Nc3ccccc3S2)cc1 (configuration not stated) -14.2
Cn1c(=O)c2c(-c3ccccc3)n(-c3cc([N+](=O)[O-])ccc3N)cc2n(C)c1=O -18.6
CNC(=O)c1sc(-c2ccccn2)nc1C 5.34
O=[N+]([O-])c1ccc2nc(-c3ccccc3[N+](=O)[O-])[nH]c2c1 -1.6
O=S(=O)(NCc1cc(-c2ccccc2)no1)c1ccccc1Cl -13.4
CCC1CCCCN1C(=O)CSc1nnc(-c2cccc(Cl)c2)o1 (configuration not stated) -21.8
Cn1cc(CN2CCCC(C(=O)c3cccs3)C2)c(-c2cccc(Cl)c2)n1 (configuration not stated) -5.45
O=C(Nc1ccc(Cl)cn1)c1ccc([N+](=O)[O-])o1 -7.62
NC(=O)c1cccnc1Oc1ccc(Cl)cc1Cl -0.964
C=CCN(c1ccccc1)S(=O)(=O)c1ccc(Cl)c(C(=O)OCC(=O)NCCCN2CCCC2=O)c1 -7.04
Cc1noc(C)c1NC(=O)Nc1ccc2c(c1)C(=O)N([C@@H](C)CO)C[C@@H](C)[C@H](CN(C)C(=O)Nc1ccc3c(c1)OCO3)OCCCC[C@H](C)O2 -11.1
COc1ccc(Cc2c(-c3cccc(Cl)c3)nc3ccc(Cl)cn23)c(C)c1 7.25
O=[N+]([O-])c1ccc(/C=C/c2ccc3cccc([N+](=O)[O-])c3n2)cc1 -9.89
CCOc1ccc(CN(C)C(=O)c2ccc(NS(=O)(=O)c3ccc4[nH]c(=O)[nH]c4c3)cc2)cc1 -6.14
CCOC(=O)C1CCCN(Cc2c(Cl)cccc2Cl)C1 (configuration not stated) -11.9
O=C(c1ccccc1)N(c1ccccc1)c1nccc2ccccc12 -1.24
O=C(Nc1ccc(Nc2ccccc2)cc1)c1ccc(F)cc1 -12.1
CCc1cccc(CC)c1NC(=O)Cn1c(-c2ccc(F)cc2)noc1=O 6.64
CC(C)[C@@H]1CC[C@@H](C)C[C@H]1O 36.5
Cc1nc2ncnn2c(N2CCC(C(=O)NC3CCCC3)CC2)c1Cc1ccccc1 -18.8
C[C@H](CO)N1C[C@H](C)[C@H](CN(C)C(=O)Nc2ccc(F)cc2)Oc2c(NC(=O)Nc3ccccc3)cccc2C1=O -2.94
Cc1ccc(-c2c[n+](CC(=O)Nc3ccccc3)c3n2CCC3)cc1 -6.8
Cc1nn2c(NCc3ccccn3)cc(C(C)C)nc2c1-c1ccccc1 -11.1
S=c1nc(-c2cc(Cl)cc(Cl)c2)[nH][nH]1 -16.2
COC(=O)c1cc(C)sc1NC(=O)CC1Nc2ccccc2NC1=O (configuration not stated) -10.8
CC(=O)Nc1ccc(NS(=O)(=O)c2ccc(Cl)s2)cc1 17.5
CCN(CC)CCNC(=O)c1cc2cc3ccc(OC)cc3nc2o1 -3.1
CC(=O)c1cccc(NC(=O)COC(=O)CCC(=O)c2ccc(F)cc2)c1 -16.7
O=C(Nc1ccc(C(F)(F)F)cc1)C1CCN(c2cnccn2)CC1 -6.77

Three entries out of the list, ordered by length of the SMILES, smallest number first.
Activity change, negative = inhibition, inactive:
CSc1nnnn1-c1ccc(Cl)cc1 -12.6
CC(C)[C@@H]1CC[C@@H](C)C[C@H]1O 36.5
CCC(C(=O)NC1CCCC1)n1c(-c2ccnc3ccccc23)nc2ccccc21 (configuration not stated) -22.6
